Reference: PubChem BioAssay AID1347075 (National Center for Advancing Translational Sciences (NCATS), 2019)
In all, about 400,000 compounds went through this assay and about 5,500 (1.4%) were called active. This list was built around the results that the source calls inconclusive (neither active nor inactive); the mix of calls is not that of the screen. The call rests on the fitted dose curve; in most records, active means well fitted cell-killing curve with a large enough effect; inconclusive means small, poorly fitted or top-dose-only effect, or effect the other way; inactive means flat fitted curve, though single readings scatter. Potencies of inconclusive entries are doubtful fits and often do not repeat.

test: qHTS assay for MDR1-selective chemotherapeutics: Primary screen using the parental adenocarcinoma cell KB-3-1; settings: KB-3-1 viability, CellTiter-Glo ATP luminescence, 72 h; activity change, negative = cytotoxic: at 46.1 µM (top of the series); further: nearly all actives have a fitted effect of over 60% in size
Method in brief: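 Multi-concentration cytotoxicity screen in KB-3-1 cells grown in DMEM lacking phenol red with 10% FBS. After 72 h at 37 °C with compound, ATP-dependent luminescence was recorded.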
On the % scale 0 is the no-effect control and ±100 the full control effect; potency means the concentration at half of the fitted maximal effect.

Structure (SMILES) | Potency | activity change, negative = cytotoxic
C[C@@H](CN1CCC(Cc2ccccc2)CC1)[C@@H](O)c1ccc(O)cc1 | inactive | 
CCCn1c2ccccc2c2cnn(CC(=O)NCCc3ccc(S(N)(=O)=O)cc3)c(=O)c21 | inactive | 
CN(c1ccc(Br)cc1)S(=O)(=O)c1ccc2[nH]cc(C(=O)NCCN3CCOCC3)c(=O)c2c1 | inactive | 
Fc1ccccc1N1CCN(c2nc3ccccc3n3nnnc23)CC1 | inconclusive: 16.4 µM [cytotoxic, single point] | 
Nc1nc(CCl)nc(N(c2ccccc2)c2ccccc2)n1 | inconclusive: 18.4 µM [cytotoxic, single point] | 
CCOc1ccc(C(NC(=O)CC)c2c(O)ccc3ccccc23)cc1 (centres undefined) | inconclusive: 29.1 µM [cytotoxic, single point] | 
Brc1ccc(-c2csc3[n+]2CCCCC3)cc1 | inconclusive: 20.6 µM [cytotoxic, single point] | 
COc1ccccc1NC(=O)/C=C/c1ccc2c(c1)OCO2 | inconclusive: 20.6 µM [cytotoxic, single point] | 
Cc1ccc(CN(Cc2cc3cc(C)ccc3[nH]c2=O)Cc2nnnn2Cc2ccccc2)cc1 |  | inconclusive: -0.34%
COc1cccc(-c2cc(=O)c3cc(NC(=O)c4ccccc4)ccc3[nH]2)c1 | active: 1.64 µM | 
CCS(=O)(=O)c1ncc(Cl)c(C(=O)Nc2ccc(S(=O)(=O)N(C)c3ccccc3)cc2)n1 | active: 2.59 µM | 
COc1ccc2c(c1)OC[C@H]1[C@H]2N2C(=O)CN(Cc3ccccc3)C(=O)[C@@]2(C)[C@H]1c1ccccc1 | inconclusive: 29.1 µM [cytotoxic, single point] | 
Cc1ccc(CC(=O)Nc2ncc([N+](=O)[O-])s2)cc1 | inconclusive: 23.1 µM [cytotoxic, single point] | 
O=C(Nc1ccc2oc(-c3ccc4ccccc4c3)nc2c1)c1cccs1 | inconclusive: 20.6 µM [cytotoxic, single point] | 
C/C(=N\NC(=O)COc1ccc(C(C)(C)C)cc1)c1ccc(-n2ccnc2)cc1 | inconclusive: 25.9 µM [cytotoxic, single point] | 
O=C(NCc1ccccc1Cl)C1CCCN1C(=O)NC1CCCCC1 (centres undefined) | inactive | 
Cc1onc(-c2ccccc2Cl)c1C(=O)Nc1nnc(C2CCCCC2)s1 | inactive | 
Cc1noc(C)c1CSCC(=O)N1CCN(c2ccc(F)cc2)CC1 | inconclusive: 23.1 µM [cytotoxic, single point] | 
COc1cc(CN2CC(C)OC(C)C2)cc(OC)c1 (centres undefined) | inactive | 
COCCNC(=O)CSCc1nc(-c2ccc(SC)cc2)oc1C | inconclusive: 11.6 µM [cytotoxic, partial curve, poor fit] | 
Cc1ccc(C(=O)N/N=C/c2cn(Cc3ccccc3)c3ccccc23)cn1 | active: 16.4 µM | 
Cc1ccc(NC2=C(NCCO)C(=O)c3ccccc3C2=O)cc1 | inconclusive: 29.1 µM [cytotoxic, partial curve, poor fit] | 

Structure (SMILES) | Potency | activity change, negative = cytotoxic
Fc1ccc(-c2c[nH]c(=S)n2Cc2ccccc2)cc1 | inactive | 
O=C(Nc1nc2cc3c(cc2s1)OCCO3)c1ccncc1 | inconclusive: 18.4 µM [cytotoxic, partial curve, poor fit] | 
NC(=O)c1cc(Cc2ccccc2)sc1NC(=O)c1ccco1 | inconclusive: 18.4 µM [cytotoxic, single point] | 
COC(=O)c1ccc(NC(=O)C(C)Sc2nc(=O)cc(N)n2CCc2ccccc2)cc1 (centres undefined) |  | inconclusive: -1.63%
COc1ccc(NS(=O)(=O)c2ccc(N3CCCC3)c(NC(=S)Nc3ccc(SC(F)F)cc3)c2)cc1 | inconclusive: 20.6 µM [cytotoxic, single point] | 
CCNC(=O)c1c(O)c2cccc3c2n(c1=O)CC3 | inconclusive: 29.1 µM [cytotoxic, single point] | 
CCCNC(=O)c1ccc(N2CCC3(CC2)CC(c2cccc(Br)c2)=NO3)c(NC(=O)c2ccc(Cl)c([N+](=O)[O-])c2)c1 | inactive | 
CSC(=S)N/N=C(\C)c1ccccc1 | inactive | 
O=C(/C=C/c1cccc([N+](=O)[O-])c1)OCC1CCCO1 (centres undefined) | inactive | 
Cc1cc(C)c(NC(=O)CS(=O)CC(=O)NC2CCCc3ccccc32)c(C)c1 (centres undefined) | inconclusive: 0.0073 µM [rising, full curve] | 
Cc1c(C(=O)N(CC(C)C)c2c(N)n(Cc3ccccc3)c(=O)[nH]c2=O)sc2nc3n(c(=O)c12)CCC3 | inactive | 
COc1ccc(-c2csc(N(CC3CCCO3)C(=O)c3ccco3)n2)cc1 (centres undefined) | inconclusive: 29.1 µM [cytotoxic, single point] | 
CC(C)Oc1ccc(/C=N/NC(N)=S)cc1 | inconclusive: 16.4 µM [cytotoxic, single point] | 
COc1ccccc1OCC(=O)Nc1ccccc1C(=O)N1CCCCC1 | inconclusive: 1.64 µM [rising, full curve] | 
CN(C)S(=O)(=O)c1cccc(NC(=O)Cc2ccc(-c3ccccc3)cc2)c1 | inconclusive: 20.6 µM [cytotoxic, single point] | 
N#CCc1c(C#N)c(N)nc(N2CCCC2)c1C#N | inconclusive: 29.1 µM [cytotoxic, single point] | 
O=[N+]([O-])c1ccc2cn(-c3ccccc3)nc2c1 | inconclusive: 3.26 µM [cytotoxic, partial curve, poor fit] | 
Cc1cc(-c2ccc(C)c(S(=O)(=O)NCCCN3CCN(c4ccccc4F)CC3)c2)on1 | inconclusive: 18.4 µM [cytotoxic, partial curve] | 
COc1ccc(C(=O)C(=O)N2CCN(c3ccc(C)cc3)CC2)cc1OC | inconclusive: 29.1 µM [cytotoxic, single point] | 
Cc1ccc(-n2nnc3c(=O)n(CC(=O)NCc4ccco4)cnc32)cc1 | inconclusive: 29.1 µM [cytotoxic, single point] | 
O=C(NCc1cc(Cl)cc(Cl)c1)c1ccc2nc([C@@H]3O[C@H](CO)[C@H](O)[C@H](O)[C@H]3O)[nH]c2c1 | inactive | 
Cn1cnc(S(=O)(=O)Nc2ccc(Cl)c(C(F)(F)F)c2)c1 | inconclusive: 2.31 µM [cytotoxic, partial curve, poor fit] | 

Sorted by count of non-hydrogen atoms (high to low): some entries from above
Structure (SMILES) | Potency | activity change, negative = cytotoxic
O=C(NCc1cc(Cl)cc(Cl)c1)c1ccc2nc([C@@H]3O[C@H](CO)[C@H](O)[C@H](O)[C@H]3O)[nH]c2c1 | inactive | 
Cc1cc(C)c(NC(=O)CS(=O)CC(=O)NC2CCCc3ccccc32)c(C)c1 (centres undefined) | inconclusive: 0.0073 µM [rising, full curve] | 
N#CCc1c(C#N)c(N)nc(N2CCCC2)c1C#N | inconclusive: 29.1 µM [cytotoxic, single point] | 
